Source: paper PMC7171142
Results are given in words; binding and its absence hold for the method and conditions named. Binding seen in cells or lysates may run through a third protein. Some binding calls cover weakened binding; strength is not graded here.

Protein sequences, listed by entry. Tags and fused reporters are not part of them. Residues count along the entry.
UniProt O97302, residues 20-1086: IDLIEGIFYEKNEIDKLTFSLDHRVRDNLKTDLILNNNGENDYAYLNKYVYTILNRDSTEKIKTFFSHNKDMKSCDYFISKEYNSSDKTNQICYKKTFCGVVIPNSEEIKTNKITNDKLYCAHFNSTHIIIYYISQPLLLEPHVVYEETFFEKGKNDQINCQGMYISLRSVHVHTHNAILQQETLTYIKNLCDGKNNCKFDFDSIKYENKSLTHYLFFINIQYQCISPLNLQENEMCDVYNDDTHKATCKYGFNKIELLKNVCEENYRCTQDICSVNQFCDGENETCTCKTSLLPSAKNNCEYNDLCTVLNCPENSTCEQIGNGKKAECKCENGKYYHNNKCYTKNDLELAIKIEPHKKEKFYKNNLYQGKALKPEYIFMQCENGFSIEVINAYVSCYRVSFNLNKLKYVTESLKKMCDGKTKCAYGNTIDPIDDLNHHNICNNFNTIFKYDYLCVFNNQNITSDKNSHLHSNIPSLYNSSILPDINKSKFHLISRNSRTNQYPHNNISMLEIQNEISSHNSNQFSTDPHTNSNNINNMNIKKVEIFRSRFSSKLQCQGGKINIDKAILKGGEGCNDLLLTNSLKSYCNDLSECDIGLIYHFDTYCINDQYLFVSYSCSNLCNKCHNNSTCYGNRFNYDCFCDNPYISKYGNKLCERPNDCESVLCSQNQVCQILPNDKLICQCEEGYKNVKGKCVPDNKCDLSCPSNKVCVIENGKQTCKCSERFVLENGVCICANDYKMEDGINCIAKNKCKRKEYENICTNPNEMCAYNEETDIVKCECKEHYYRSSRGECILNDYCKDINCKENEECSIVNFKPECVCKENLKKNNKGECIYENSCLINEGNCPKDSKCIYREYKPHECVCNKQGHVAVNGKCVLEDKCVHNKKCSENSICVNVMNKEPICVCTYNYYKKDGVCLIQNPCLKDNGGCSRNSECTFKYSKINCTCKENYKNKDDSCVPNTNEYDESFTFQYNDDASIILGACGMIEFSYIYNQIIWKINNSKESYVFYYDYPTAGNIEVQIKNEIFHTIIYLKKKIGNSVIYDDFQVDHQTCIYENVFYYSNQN
UniProt Q8IFM5, residues 25-526: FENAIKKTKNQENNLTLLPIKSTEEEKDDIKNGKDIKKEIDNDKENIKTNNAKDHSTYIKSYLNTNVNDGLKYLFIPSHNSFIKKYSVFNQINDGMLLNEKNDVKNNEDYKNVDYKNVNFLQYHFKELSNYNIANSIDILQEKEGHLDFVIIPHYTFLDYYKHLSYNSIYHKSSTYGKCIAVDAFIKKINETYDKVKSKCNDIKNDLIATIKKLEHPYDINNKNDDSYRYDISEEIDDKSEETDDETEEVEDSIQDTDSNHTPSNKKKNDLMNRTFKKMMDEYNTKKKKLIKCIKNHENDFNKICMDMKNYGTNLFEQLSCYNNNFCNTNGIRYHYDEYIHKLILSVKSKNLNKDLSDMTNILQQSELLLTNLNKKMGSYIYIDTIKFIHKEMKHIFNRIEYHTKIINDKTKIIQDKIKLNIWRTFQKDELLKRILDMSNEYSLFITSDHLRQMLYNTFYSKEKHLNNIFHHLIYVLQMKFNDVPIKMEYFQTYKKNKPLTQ

Target: Full-length PfRipr (M1-N1086) with a C-terminal 3 x HA tag (P. falciparum 3D7) (UniProt O97302)
Experiment: co-IP; PfRipr-HA immunoprecipitated with rabbit anti-HA antibody from schizont-rich parasite lysates; Western blot

Rh5 of the parasite lysate (from UniProt Q8IFM5 25-526)
binding: binds
